Data published in publication PMC4838336.
No constants are given. Whether binding was seen depends on the method and setting. Binding seen in cells or lysates may run through a third protein. Some results given as binding are weak or reduced against the parent protein; the word gives no strength.

The chains behind the UniProt entries cited, without tags or fusion partners.
UniProt Q96KQ7: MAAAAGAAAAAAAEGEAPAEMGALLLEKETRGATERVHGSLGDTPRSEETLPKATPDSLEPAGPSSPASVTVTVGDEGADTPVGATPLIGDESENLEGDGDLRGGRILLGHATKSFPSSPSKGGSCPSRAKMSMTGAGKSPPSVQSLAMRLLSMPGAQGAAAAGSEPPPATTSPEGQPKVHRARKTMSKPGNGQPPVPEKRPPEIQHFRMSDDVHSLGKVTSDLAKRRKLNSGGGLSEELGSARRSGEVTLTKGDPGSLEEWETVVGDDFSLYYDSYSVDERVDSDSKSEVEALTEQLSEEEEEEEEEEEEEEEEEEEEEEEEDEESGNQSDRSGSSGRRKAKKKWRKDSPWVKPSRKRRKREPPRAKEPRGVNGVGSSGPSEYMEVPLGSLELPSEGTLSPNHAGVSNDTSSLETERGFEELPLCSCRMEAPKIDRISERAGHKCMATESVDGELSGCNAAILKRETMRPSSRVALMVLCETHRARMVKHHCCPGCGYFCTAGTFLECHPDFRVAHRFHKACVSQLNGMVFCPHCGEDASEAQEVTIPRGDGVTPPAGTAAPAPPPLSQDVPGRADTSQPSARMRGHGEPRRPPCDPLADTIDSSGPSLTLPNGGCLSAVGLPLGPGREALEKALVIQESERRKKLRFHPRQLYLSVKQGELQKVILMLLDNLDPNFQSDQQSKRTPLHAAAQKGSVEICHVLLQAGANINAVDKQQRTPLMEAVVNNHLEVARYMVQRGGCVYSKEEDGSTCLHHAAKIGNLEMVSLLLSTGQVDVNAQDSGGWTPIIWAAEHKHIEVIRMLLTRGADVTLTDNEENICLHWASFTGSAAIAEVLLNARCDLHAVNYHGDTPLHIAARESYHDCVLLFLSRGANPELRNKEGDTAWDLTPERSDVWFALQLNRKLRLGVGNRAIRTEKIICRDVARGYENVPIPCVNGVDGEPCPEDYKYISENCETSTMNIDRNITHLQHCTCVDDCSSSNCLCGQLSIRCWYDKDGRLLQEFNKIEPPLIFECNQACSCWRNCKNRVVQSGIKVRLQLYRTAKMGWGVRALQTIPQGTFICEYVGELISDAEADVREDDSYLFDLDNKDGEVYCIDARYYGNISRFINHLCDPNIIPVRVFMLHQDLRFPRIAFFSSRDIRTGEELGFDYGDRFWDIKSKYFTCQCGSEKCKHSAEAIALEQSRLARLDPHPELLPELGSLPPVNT

T1: lamin B1 (human (endogenous in Jurkat)), P20700
T1 chain: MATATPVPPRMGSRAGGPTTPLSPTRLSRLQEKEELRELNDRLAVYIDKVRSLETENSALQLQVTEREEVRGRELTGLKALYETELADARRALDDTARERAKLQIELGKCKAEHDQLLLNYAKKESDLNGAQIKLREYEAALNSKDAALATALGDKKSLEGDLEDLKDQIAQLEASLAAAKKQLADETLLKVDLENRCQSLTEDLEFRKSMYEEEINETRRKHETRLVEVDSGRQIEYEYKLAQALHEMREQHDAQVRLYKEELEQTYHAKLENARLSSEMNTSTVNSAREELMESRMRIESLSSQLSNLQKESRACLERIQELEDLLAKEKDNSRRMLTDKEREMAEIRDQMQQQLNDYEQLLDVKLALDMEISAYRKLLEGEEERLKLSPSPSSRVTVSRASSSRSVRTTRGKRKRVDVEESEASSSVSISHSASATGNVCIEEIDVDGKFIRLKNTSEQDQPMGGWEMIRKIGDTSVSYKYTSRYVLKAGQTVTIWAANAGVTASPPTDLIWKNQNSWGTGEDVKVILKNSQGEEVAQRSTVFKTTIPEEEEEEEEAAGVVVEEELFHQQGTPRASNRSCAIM


What was measured:
[1] = molecular target: lamin B1 (human (endogenous in Jurkat)) (UniProt P20700); experiment: co-IP; complexes precipitated with anti-lamin B1 antibody from lysates of Jurkat cells cultured on VCAM1 for 24 h; probed by Western blotting
[2] = molecular target: lamin B1 (human (endogenous in Jurkat)) (UniProt P20700); experiment: condition: only cells cultured in suspension (no adhesion to VCAM1); co-IP; complexes precipitated with anti-lamin B1 antibody from lysates of Jurkat cells cultured in suspension for 24 h; probed by Western blotting
[3] = molecular target: T1, lamin B1 (human (endogenous in …)); experiment: co-IP; complexes precipitated with anti-lamin B1 antibody from lysates of Jurkat cells cultured on VCAM1 for 24 h; probed by Western blotting; conditions: remark: other sources report otherwise

Row | binding [1] | binding [2] | binding [3] | Molecule
1 | binds | no binding | – | histone methyltransferase G9a (from UniProt Q96KQ7 1-1210) (enzyme)
2 | – | – | no binding | SUV39H1, O43463 1-412 (enzyme) MAENLKGCSVCCKSSWNQLQDLCRLAKLSCPALGISKRNLYDFEVEYLCDYKKIREQEYYLVKWRGYPDSESTWEPRQNLKCVRILKQFHKDLERELLRRHHRSKTPRHLDPSLANYLVQKAKQRRALRRWEQELNAKRSHLGRITVENEVDLDGPPRAFVYINEYRVGEGITLNQVAVGCECQDCLWAPTGGCCPGASLHKFAYNDQGQVRLRAGLPIYECNSRCRCGYDCPNRVVQKGIRYDLCIFRTDDGRGWGVRTLEKIRKNSFVMEYVGEIITSEEAERRGQIYDRQGATYLFDLDYVEDVYTVDAAYYGNISHFVNHSCDPNLQVYNVFIDNLDERLPRIAFFATRTIRAGEELTFDYNMQVDPVDMESTRMDSNFGLAGLPGSPKKRVRIECKCGTESCRKYLF
